Test results as given in article PMC7819943, “Rice protein-binding microarrays: a tool to detect cis-acting elements near promoter regions in rice”.
The list shows a part of the results.

Sequences of proteins named here, by UniProt entry; tags and fusion partners are left off.
UniProt Q0JBA9, entry or part of it: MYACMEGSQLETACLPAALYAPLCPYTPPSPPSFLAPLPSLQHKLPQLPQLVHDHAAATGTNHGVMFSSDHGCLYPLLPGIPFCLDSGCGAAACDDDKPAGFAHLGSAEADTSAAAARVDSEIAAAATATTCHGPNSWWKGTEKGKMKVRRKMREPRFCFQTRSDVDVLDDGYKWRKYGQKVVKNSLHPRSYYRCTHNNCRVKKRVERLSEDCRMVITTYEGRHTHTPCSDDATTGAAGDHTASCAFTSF

Each sequence was assayed against OsWRKY34 (Oryza sativa, UniProt Q0JBA9 1-250) (assay: protein-binding microarray (RPBM); PBS, 2% BSA, 51.3 ng/ul salmon testes DNA, 50 uM zinc acetate, 200 nM TF, 25 C, 1 h; high values mean tight binding). Details: protein: recombinant; tags: N-terminal polyhistidine and DsRed monomer fusion (pET32a); label: CyDye5-dUTP incorporated in the synthesized complementary strand; 3' TTTTT single-stranded linker to array surface; dsDNA, one strand shown.
Outline: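 For the binding signal, per-feature fluorescence intensity was read in arbitrary units on an Axon 4000B scanner. Before scanning, a 2% BSA-blocked custom Agilent array made double-stranded with Cy5-dUTP was washed after 1 h at 25 °C with 200 nM protein and 50 µM zinc acetate. The proteins were Ni–NTA-purified transcription factors with N-terminal polyhistidine and DsRed fusions, expressed in E. coli BL21-CodonPlus.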

With “TCTAACATATAGTAGTAGGCTATAATTGCTTTGTTTGTGTCGGAGTCACCTAGTGCAG” as the sequence, how does the binding signal read?
Its binding signal is 9080 fluorescence intensity (a.u.).

For “AAACTAAAACGCAACATATATACTCAAACATAACATATTACGGAGTCACCTAGTGCAG”, which binding signal is on record?
The binding signal was 8140 fluorescence intensity (a.u.).

For “ATACTTTAAACTGTGTTTGCTTTTGATCACCCGTTTCTGACGGAGTCACCTAGTGCAG”, which binding signal is on record?
Its binding signal is 8520 fluorescence intensity (a.u.).

“GGAGGTGGTGGCGCTGCCTCGGGGCCCCTCGCCTGGGAGGCGGAGTCACCTAGTGCAG” was tested. Which binding signal did it give?
Its binding signal is 9800 fluorescence intensity (a.u.).

With “ACCTGGACGCGTCGAACCCGGTGGTGCGGGCGGCGTGGGGCGGAGTCACCTAGTGCAG” as the sequence, how does the binding signal read?
The binding signal was 8170 fluorescence intensity (a.u.).

For “ATAACACCAGTTTGCAATTTAAGTTTCGTGCCTTACTTGTCGGAGTCACCTAGTGCAG”, which binding signal is on record?
The binding signal was 8830 fluorescence intensity (a.u.).

“TTGCTGTTCCCGCTCGCCACACACTTTCGCCTTTCTGACTCGGAGTCACCTAGTGCAG” was tested. Which binding signal did it give?
Its binding signal is 11800 fluorescence intensity (a.u.).

How did the binding signal turn out when “TCTCTCTCTCTCTCCTACTGTTAGGGTTTGCCTCCTTGCTCGGAGTCACCTAGTGCAG” was run?
Its binding signal is 11700 fluorescence intensity (a.u.).

“TCCCTGTTCTGTCTTTCTTCCTAGGCTTAACTATTTGGGCCGGAGTCACCTAGTGCAG” was tested. Which binding signal did it give?
The binding signal was 9860 fluorescence intensity (a.u.).

Which binding signal does the source give for “TAGTTTTTGCCTACAAGTTTTGTCCATGGTACTGTGTTACCGGAGTCACCTAGTGCAG” here?
The binding signal was 9760 fluorescence intensity (a.u.).

How did the binding signal turn out when “TATGCATCTCCGGATCTCCCCATGAGTTGACCACTACAGTCGGAGTCACCTAGTGCAG” was run?
The binding signal was 9890 fluorescence intensity (a.u.).

For “GGGGACGCAGGAGGAGGTGGGTGGGTCGAGCTCGCTTGCGCGGAGTCACCTAGTGCAG”, which binding signal is on record?
Its binding signal is 15400 fluorescence intensity (a.u.).

With “GTGTTCGTCGCCGTCCGCGCTCGCTTGTCGCGGTCCCGGCCGGAGTCACCTAGTGCAG” as the sequence, how does the binding signal read?
Its binding signal is 8090 fluorescence intensity (a.u.).

For “TAATATATGTTGCCTCTCCTTTCGAATAACCTCATGTCTACGGAGTCACCTAGTGCAG”, which binding signal is on record?
The binding signal was 8450 fluorescence intensity (a.u.).

“ATCTCTCCTTGCCTGCTGTGCTGTCCGTTCGATCGAGCTTCGGAGTCACCTAGTGCAG” was tested. Which binding signal did it give?
The binding signal was 8450 fluorescence intensity (a.u.).

How did the binding signal turn out when “TTGCTTCTATCGGCCCGTTTCCATCTCGCTCTACGCGACTCGGAGTCACCTAGTGCAG” was run?
The binding signal was 11500 fluorescence intensity (a.u.).

How did the binding signal turn out when “CCTCGTTAAAACCCGCGTCGTTCTCACACACACTTCCACCCGGAGTCACCTAGTGCAG” was run?
Its binding signal is 12900 fluorescence intensity (a.u.).

For “ACTTGTTGACTAACTATTGTTAACTGTTATGCTGTGGTATCGGAGTCACCTAGTGCAG”, which binding signal is on record?
Its binding signal is 8340 fluorescence intensity (a.u.).

For “GATCCCGTTCCGGTCGCAGCCATCGCCTATCGCGGCGCCGCGGAGTCACCTAGTGCAG”, which binding signal is on record?
The binding signal was 9790 fluorescence intensity (a.u.).

Which binding signal does the source give for “CGGCGGTCAAACACAAATTTTAACAGAAGGCTACCTTGACCGGAGTCACCTAGTGCAG” here?
Its binding signal is 12200 fluorescence intensity (a.u.).

Which binding signal does the source give for “GTAGTGCTGATGTTGTACTGTGTTTTTTTACCCGTTTTATCGGAGTCACCTAGTGCAG” here?
Its binding signal is 11500 fluorescence intensity (a.u.).

For “TACTAAACAAAGCGCGTGCTATCTCTTTCGTTTTGACCACCGGAGTCACCTAGTGCAG”, which binding signal is on record?
The binding signal was 8770 fluorescence intensity (a.u.).

With “CTGCCATCGCGTCGGCGTCGCGCCGCTGCCGTTGACCGTGCGGAGTCACCTAGTGCAG” as the sequence, how does the binding signal read?
Its binding signal is 16700 fluorescence intensity (a.u.).

With “TAGTACTCCGCCGCCGTGGACCCGGTCTTCCTACACCCCACGGAGTCACCTAGTGCAG” as the sequence, how does the binding signal read?
The binding signal was 8500 fluorescence intensity (a.u.).

How did the binding signal turn out when “ACGGTTGTGTATTTCATAGTAGGGTGTAAATGTACGCTGACGGAGTCACCTAGTGCAG” was run?
Its binding signal is 8030 fluorescence intensity (a.u.).

How did the binding signal turn out when “CTGATTCATTATACTAGGAGGGGTGGGAGGGAGGGAGTACCGGAGTCACCTAGTGCAG” was run?
Its binding signal is 18800 fluorescence intensity (a.u.).

Which binding signal does the source give for “CGGGCACGTGCCACGACGACGCCCTATCCACCACACTATCCGGAGTCACCTAGTGCAG” here?
Its binding signal is 9400 fluorescence intensity (a.u.).

Which binding signal does the source give for “GTATGTTTCGTGAGTAATGCCACTAATATGTGCTGTTATACGGAGTCACCTAGTGCAG” here?
The binding signal was 8040 fluorescence intensity (a.u.).

For “TTCGTTAACAACCTCGACTACTCCATATGCCCAATTAATTCGGAGTCACCTAGTGCAG”, which binding signal is on record?
The binding signal was 8230 fluorescence intensity (a.u.).

How did the binding signal turn out when “CCTCCTCGTCCACCTCCTCTCCCGCATCGCCGCCGCCGCGCGGAGTCACCTAGTGCAG” was run?
The binding signal was 8980 fluorescence intensity (a.u.).

For “TTTTCTATACTGTATTTTGTGTCATTTTCAATCATTGATTCGGAGTCACCTAGTGCAG”, which binding signal is on record?
Its binding signal is 14400 fluorescence intensity (a.u.).

How did the binding signal turn out when “CATTGCCAGTTTTGTTGCTACTCCACTGATATGGTTTTTCCGGAGTCACCTAGTGCAG” was run?
Its binding signal is 10800 fluorescence intensity (a.u.).

Which binding signal does the source give for “TCTTATTCCTTGTCCCAACTCCAACTGCAGAGGAAGCTACCGGAGTCACCTAGTGCAG” here?
The binding signal was 9350 fluorescence intensity (a.u.).

How did the binding signal turn out when “ATCAGAACCGCCACTCAAGTTTCAGTAGTTTGGTCTTGTACGGAGTCACCTAGTGCAG” was run?
Its binding signal is 10800 fluorescence intensity (a.u.).

With “AGAAGATCAGAACAAAGACAAATAAAGAATGCTTCACGGGCGGAGTCACCTAGTGCAG” as the sequence, how does the binding signal read?
Its binding signal is 10600 fluorescence intensity (a.u.).

“TTTTACCTCTCTCGTTTGTCGGATAGTAAATTTATTTTTACGGAGTCACCTAGTGCAG” was tested. Which binding signal did it give?
The binding signal was 9090 fluorescence intensity (a.u.).

Which binding signal does the source give for “CCTTGTGCTGTCGTCGTCGACCTACCCTACCCCGTGGAGTCGGAGTCACCTAGTGCAG” here?
The binding signal was 8210 fluorescence intensity (a.u.).

For “GAGGGGTTTTTTTTTTTCTTTGTGTTCTCAATTTTGCGTGCGGAGTCACCTAGTGCAG”, which binding signal is on record?
Its binding signal is 14300 fluorescence intensity (a.u.).

“CCCTCCGCTGAGGTTGCGGTTGATGATCTTTCATCAGTGACGGAGTCACCTAGTGCAG” was tested. Which binding signal did it give?
Its binding signal is 8590 fluorescence intensity (a.u.).

Which binding signal does the source give for “CACCCGATCCACGTGCCTCGTGGGGTTGGTTTGGTTTGGACGGAGTCACCTAGTGCAG” here?
Its binding signal is 8440 fluorescence intensity (a.u.).

With “ACCTCGCGCTTTCTTGGCCGCTTCGCCCGCGACGCAACGGCGGAGTCACCTAGTGCAG” as the sequence, how does the binding signal read?
The binding signal was 10300 fluorescence intensity (a.u.).

Which binding signal does the source give for “GTGGGTGTGGCAATAAAGGTGAAGTCTTCAAGTTTGCAATCGGAGTCACCTAGTGCAG” here?
The binding signal was 9480 fluorescence intensity (a.u.).
